Experimental data as given in patent US20120064008A1, “COMPOSITIONS FOR THE TREATMENT OF METASTATIC CANCER AND METHODS OF USE THEREOF” (priority 2009, published 2012).
For some assays here: The name of at least one read-out is uncertain. Some entries share one result that the patent states for a list of compounds.

Assays:
PC-3MLN4 cells = assay: Normalized mitotic index (histone H3 phospho-Serine-28), PC-3MLN4; type: cell-based, human; settings: at 1 μM, normalized against vehicle-treated cells
From the text: (§1) The mitotic index for each agent was normalized against those obtained from vehicle-treated cells, and compared with the activity of paclitaxel, a known inducer of mitotic arrest.

PC-3M cells = assay: Normalized mitotic index (histone H3 phospho-Serine-28), PC-3M; type: cell-based, human; settings: at 1 μM; normalized against vehicle-treated cells
From the text: as §1

AT6.1 cells = assay: Normalized mitotic index (histone H3 phospho-Serine-28), AT6.1; type: cell-based, rat; settings: at 1 μM; normalized against vehicle-treated cells
From the text: as §1

PC-3TxR cells = assay: Subcutaneous PC-3TxR tumors in nude mice; type: in vivo; settings: 100 mg/kg three times a week for 3 weeks, in DNTC diluted with saline; start at approximately 100 mm^3

SMILES	Normalized mitotic index PC-3MLN4 (PC-3MLN4 cells)	Normalized mitotic index PC-3M (PC-3M cells)	Normalized mitotic index AT6.1 (AT6.1 cells)	tumor size throughout the study (PC-3TxR cells)	Normalized mitotic index PC-3MLN4 (PC-3MLN4 cells; listed as flubendazole)
CCCOc1ccc2nc(NC(=O)OC)[nH]c2c1 [Oxibendazole, oxibendazole]	1.92	1.75	1.61	–	–
COC(=O)Nc1nc2ccc(Sc3ccccc3)cc2[nH]1 [Fenbendazole, fenbendazole]	2.27	1.86	1.54	100-150 mm^3	–
COC(=O)Nc1nc2cc(C(=O)c3ccc(F)cc3)ccc2[nH]1 [Flubendazole, flubendazole]	2.08	1.87	1.37	–	greater than 1.00
